From publication PMC4723226
Results are given in words; binding and its absence hold for the method and conditions named. Binding seen in cells or lysates may run through a third protein. Binding can be weak; no strength is given. Where a sequence is shown, tags or fusion partners need not be part of it.

T1: Flag-SMYD1 (not stated (human or mouse cDNA cloned)) (UniProt Q8NB12)
T1 sequence: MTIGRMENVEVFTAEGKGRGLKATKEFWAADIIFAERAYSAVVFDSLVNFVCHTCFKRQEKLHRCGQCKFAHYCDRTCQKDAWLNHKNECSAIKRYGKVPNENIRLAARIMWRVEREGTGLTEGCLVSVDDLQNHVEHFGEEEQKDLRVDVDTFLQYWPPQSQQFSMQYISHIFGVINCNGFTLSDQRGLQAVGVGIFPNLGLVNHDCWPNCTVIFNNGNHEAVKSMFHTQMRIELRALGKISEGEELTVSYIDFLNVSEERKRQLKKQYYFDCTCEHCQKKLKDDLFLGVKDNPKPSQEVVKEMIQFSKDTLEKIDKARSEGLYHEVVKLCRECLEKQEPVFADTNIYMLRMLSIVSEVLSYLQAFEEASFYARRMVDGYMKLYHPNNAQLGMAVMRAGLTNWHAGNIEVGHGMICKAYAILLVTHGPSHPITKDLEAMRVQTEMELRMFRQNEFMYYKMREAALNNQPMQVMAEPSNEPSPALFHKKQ

B1: HA-SRF (protein, UniProt P11831 1-508)
chain: MLPTQAGAAAALGRGSALGGSLNRTPTGRPGGGGGTRGANGGRVPGNGAGLGPGRLEREAAAAAATTPAPTAGALYSGSEGDSESGEEEELGAERRGLKRSLSEMEIGMVVGGPEASAAATGGYGPVSGAVSGAKPGKKTRGRVKIKMEFIDNKLRRYTTFSKRKTGIMKKAYELSTLTGTQVLLLVASETGHVYTFATRKLQPMITSETGKALIQTCLNSPDSPPRSDPTTDQRMSATGFEETDLTYQVSESDSSGETKDTLKPAFTVTNLPGTTSTIQTAPSTSTTMQVSSGPSFPITNYLAPVSASVSPSAVSSANGTVLKSTGSGPVSSGGLMQLPTSFTLMPGGAVAQQVPVQAIQVHQAPQQASPSRDSSTDLTQTSSSGTVTLPATIMTSSVPTTVGGHMMYPSPHAVMYAPTSGLGDGSLTVLNAFSQAPSTMQVSHSQVQEPGGVPQVFLTASSGTVQIPVSAVQLHQMAVIGQQAGSSSNLTELQVVNLDTAHSTKSE

Key:
[1] = target: T1, Flag-SMYD1 (not stated (human or mouse cDNA cloned)); test: co-IP; 293T cells transfected with Flag-SMYD1 and HA-SRF constructs (whole or deletion mutants); lysates immunoprecipitated with anti-Flag (Fig 4A also anti-HA) antibody; western blot with anti-HA or anti-Flag
[2] = target: Flag-SMYD1 N-terminus domain (deletion mutant) (not stated (human or mouse cDNA cloned)); test: as above

Molecule | binding [1] | binding [2]
HA-SRF-N (SRF N-terminus domain) (domain or fragment) | binds | –
B1 | – | binds
